Like-named read-outs stand apart in the source and are kept apart here. These are yes or no findings as the source states them, for the method shown. In cells and extracts the contact can be indirect. Some results given as binding are weak or reduced against the parent protein; the word gives no strength.
Experiments:
[1] = biological target: EGFR (human (endogenous in MDA-MB-468)) (UniProt P00533); experiment: proximity ligation
[2] = biological target: EGFR (human (endogenous in MDA-MB-468)) (UniProt P00533); experiment: proximity ligation; remark: listed apart in the source

binding [1]: binds | binding [2]: binds weakly
B1: GAB1 (protein, UniProt Q13480 1-694)
chain: MSGGEVVCSGWLRKSPPEKKLKRYAWKRRWFVLRSGRLTGDPDVLEYYKNDHAKKPIRIIDLNLCQQVDAGLTFNKKEFENSYIFDINTIDRIFYLVADSEEEMNKWVRCICDICGFNPTEEDPVKPPGSSLQAPADLPLAINTAPPSTQADSSSATLPPPYQLINVPPHLETLGIQEDPQDYLLLINCQSKKPEPTRTHADSAKSTSSETDCNDNVPSHKNPASSQSKHGMNGFFQQQMIYDSPPSRAPSASVDSSLYNLPRSYSHDVLPKVSPSSTEADGELYVFNTPSGTSSVETQMRHVSISYDIPPTPGNTYQIPRTFPEGTLGQTSKLDTIPDIPPPRPPKPHPAHDRSPVETCSIPRTASDTDSSYCIPTAGMSPSRSNTISTVDLNKLRKDASSQDCYDIPRAFPSDRSSSLEGFHNHFKVKNVLTVGSVSSEELDENYVPMNPNSPPRQHSSSFTEPIQEANYVPMTPGTFDFSSFGMQVPPPAHMGFRSSPKTPPRRPVPVADCEPPPVDRNLKPDRKVKPAPLEIKPLPEWEELQAPVRSPITRSFARDSSRFPMSPRPDSVHSTTSSSDSHDSEENYVPMNPNLSSEDPNLFGSNSLDGGSSPMIKPKGDKQVEYLDLDLDSGKSTPPRKQKSSGSGSSVADERVDYVVVDQQKTLALKSTREAWTDGRQSTESETPAKSVK
